# Data as given in PubChem BioAssay AID1508588 (Peter MacCallum Cancer Centre, 2020).
# Purpose: 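Knock-downs boosting vemurafenib effects on melanoma cell growth or lactate release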 (primary screen)
# Cells: human WM266.4 melanoma cells (BRAF V600 mutant)
# Reagent: siRNA pool against human genes, 40 nM
# Timing: 96 h from transfection to read-out
# Challenge: vemurafenib 300 nM (about IC25), added 48 h after transfection, for 48 h; comparison arm got DMSO vehicle only
# Detection: 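Cell gain (DAPI nuclei at end minus before drug, mean of two replicates) and medium lactate by absorbance per cell, both as ratio to non-targeting siRNA, also grouped into fold-change classes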
# Reading the numbers: cell gain with vemurafenib: higher = more cell gain than with non-targeting siRNA; lactate per cell with vemurafenib: higher = more lactate made per cell
# Rule for the call: 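Enhancement is called by pairing each knock-down's vehicle-arm and drug-arm fold-change classes for viability or glycolysis; which class combinations qualify is not given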
# Calls: active = enhances vemurafenib effect; inactive = no enhancement seen
# The whole screen tested about 18,000 reagents; shown is a part drawn at random. 790 of all reagents (4.4%) were called active. 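Calls rest on a combination of fold-change classes in drug and vehicle arms, not all shown here.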
gene,cell gain with vemurafenib,lactate per cell with vemurafenib,outcome
KAT6B,1.17,0.42,inactive
ABCB6,0.46,1.49,inactive
OR4C15,0.95,1.09,inactive
PCDHGB3,0.14,2.36,inactive
CHAF1B,0.11,1.34,inactive
ZNG1E,0.7,1.67,inactive
IQGAP2,0.15,1.35,active
LRPPRC,0.51,1,inactive
PDLIM5,0.69,1.42,inactive
GARRE1,0.75,0.74,inactive
HBEGF,0.8,0.7,inactive
WDR37,0.47,0.5,inactive
AZU1,0.34,0.53,active
NVL,0.13,2.34,inactive
METTL13,0.61,0.96,inactive
ZDHHC18,0.39,0.95,inactive
TMEM87B,0.83,0.64,inactive
HCP5,0,1.12,inactive
ZFAND2A,0.24,1.66,inactive
GPR75,0.81,0.74,inactive
C5orf34,0.53,1.05,inactive
OR4K17,0.19,1.74,inactive
CATSPER2,0.97,1.04,inactive
TAF1A,0.75,1.06,inactive
RASGEF1C,0.29,1.4,inactive
VPS11,0.21,0.68,inactive
RPL15,0.19,1.4,inactive
IL3,0.07,3.08,inactive
COQ3,0.25,1.21,inactive
ISM2,0.35,0.55,inactive
LAMP3,0.48,1.25,inactive
HTR1F,0.65,0.86,inactive
RFC5,0.67,0.9,inactive
MIA,1.03,0.63,inactive
TRAPPC8,0.4,0.42,active
MTUS2,0.38,1.54,inactive
ARHGAP33,0.43,0.26,inactive
CYB561D1,0.77,0.74,inactive
OR5H1,0.51,0.59,inactive
NTHL1,0.36,2.34,inactive
IL1R2,0.53,1.61,inactive
KCNA1,0.52,0.88,inactive
RNF24,0.43,1.08,inactive
ANO3,0.59,0.4,inactive
HCG9,1,0.97,inactive
HUNK,0.26,0.82,inactive
PLA2G2D,0.39,1.42,inactive
HOXC9,0.97,0.48,active
ACBD3,0.3,0.99,inactive
TRIM55,1.08,0.88,inactive
NRBP2,0.66,1.44,inactive
PRG2,0.77,1.09,inactive
ZNF564,0.24,0.23,inactive
NQO1,0.45,1.72,inactive
MCAM,0.86,0.74,inactive
FREM2,0.3,0.68,inactive
CAMSAP1,0.86,0.72,inactive
HRH4,0.85,0.8,inactive
INTS15,0.49,2.66,inactive
GIT2,1.06,0.74,inactive
DMD,0.33,0.74,inactive
MED1,0.53,1.15,inactive
PGR,0.43,1.23,inactive
ZMYND11,1.06,0.97,inactive
CEP112,0.99,1.06,inactive
WFDC8,0.41,1.39,inactive
MAFG,0.6,1.18,inactive
DGKQ,0.83,1.23,inactive
RFLNA,0.15,1.52,inactive
MDGA2,0.49,0.8,inactive
UBQLNL,0.85,0.88,inactive
NR3C2,0.85,1.1,inactive
DR1,0.98,0.99,inactive
USP6,0.12,1.21,inactive
PLCB2,0.39,0.71,inactive
TMEM132D,1.48,0.62,inactive
ZNF235,0.73,0.76,inactive
GATAD1,0.18,0.58,active
MLLT10,1.22,0.54,inactive
DCBLD1,0.58,1.07,inactive
HSD17B11,0.61,0.4,inactive
DTX4,1.08,0.71,inactive
TADA3,0.25,1.83,inactive
PIWIL2,0.75,1.08,inactive

Ordered by “cell gain with vemurafenib” (low to high): 7 of the entries above.
gene,cell gain with vemurafenib,lactate per cell with vemurafenib,outcome
IQGAP2,0.15,1.35,active
WDR37,0.47,0.5,inactive
LRPPRC,0.51,1,inactive
PDLIM5,0.69,1.42,inactive
ZNG1E,0.7,1.67,inactive
GARRE1,0.75,0.74,inactive
HBEGF,0.8,0.7,inactive
